Data reported in patent publication US20230158042A1, “COMBINATION CANCER THERAPY WITH PENTAAZA MACROCYCLIC RING COMPLEX AND HORMONE THERAPY AGENT” (Galera Labs, LLC, priority 2020, published 2023).
At least one compound was matched to its structure with a doubt left.

Test system: MCF7-MnSOD^K68Q cells
Assay: Clonogenic cell survival in MCF7-MnSOD^K68Q cells
Assay type: cell-based, human
Conditions: Palb at 0.5 µM; compared to MCF7 cells expressing MnSOD^WT
Description: FIGS. 25a-25b show clonogenic cell survival studies in MCF7-MnSOD^K68Q cells exposed to either: Fulv at 100 nM (in FIG. 25a); or Palb at 0.5 µM (in FIG. 25b) using standard methods. […] Error bars are ± 1 SEM. Experiments in triplicate. *** p < 0.001.
Clonogenic cell survival assay. For the clonogenic survival analysis, exponentially growing cells were replated using appropriate dilutions, and clonogenic survival was evaluated after 14 days in regular growth medium. Cells were stained with crystal violet, and colonies of >50 cells were counted and utilized to calculate clonogenic survival^46.

CC(=O)c1c(C)c2cnc(Nc3ccc(N4CCNCC4)cn3)nc2n(C2CCCC2)c1=O [Palb, palbociclib]
clonogenic tumor cell survival: exhibited resistance
